PubChem BioAssay AID652272 – Drosophila RNAi Screening Center – 2013

Aim: 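Finding fly genes that regulate Hedgehog signal transduction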 (primary screen)
System: Drosophila clone 8 (Cl8) cells
Reagent: long dsRNA against Drosophila genes
Measurement: 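Firefly light from a Hedgehog-responsive ptc promoter reporter and Renilla reference light, both read on a plate reader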
Reading the numbers: firefly Hh reporter signal: higher = more ptc reporter light; Renilla reference signal: higher = more Renilla control light
Active means: 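Hit when the z-score averaged over two replicates is under -2 or over +3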
Meaning of the calls: active = hit: reporter lowered or raised; inactive = not a hit
The screen tested about 21,000 reagents; below is a random part of those with a known target gene and a result. Of all reagents, 503 (2.4%) were called active. 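Raw plate light values, not normalised; calls rest on replicate z-scores that were not deposited; hits include reporter decreases as well as increases.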 Reagents against one gene are numbered here. Not given: the amount of reagent, the time to read-out.

CR42545 — firefly Hh reporter signal, replicate 1 = 86648; firefly Hh reporter signal, replicate 2 = 1.05e5; Renilla reference signal, replicate 1 = 2002; Renilla reference signal, replicate 2 = 7539; activity call = inactive
Flo1 — firefly Hh reporter signal, replicate 1 = 91222; firefly Hh reporter signal, replicate 2 = 59779; Renilla reference signal, replicate 1 = 4538; Renilla reference signal, replicate 2 = 2697; activity call = inactive
CG6356 — firefly Hh reporter signal, replicate 1 = 4.04e5; firefly Hh reporter signal, replicate 2 = 73595; Renilla reference signal, replicate 1 = 23065; Renilla reference signal, replicate 2 = 2715; activity call = inactive
ATbp — firefly Hh reporter signal, replicate 1 = 49989; firefly Hh reporter signal, replicate 2 = 1.15e5; Renilla reference signal, replicate 1 = 1018; Renilla reference signal, replicate 2 = 5923; activity call = inactive
Hip14 — firefly Hh reporter signal, replicate 1 = 1.48e5; firefly Hh reporter signal, replicate 2 = 66861; Renilla reference signal, replicate 1 = 6322; Renilla reference signal, replicate 2 = 2856; activity call = inactive
sna — firefly Hh reporter signal, replicate 1 = 88605; firefly Hh reporter signal, replicate 2 = 62770; Renilla reference signal, replicate 1 = 2524; Renilla reference signal, replicate 2 = 4864; activity call = inactive
Oatp33Eb — firefly Hh reporter signal, replicate 1 = 1.53e5; firefly Hh reporter signal, replicate 2 = 80279; Renilla reference signal, replicate 1 = 3847; Renilla reference signal, replicate 2 = 7264; activity call = inactive
Cyp4d2 — firefly Hh reporter signal, replicate 1 = 1.07e5; firefly Hh reporter signal, replicate 2 = 88483; Renilla reference signal, replicate 1 = 2480; Renilla reference signal, replicate 2 = 2771; activity call = inactive
CG9184 — firefly Hh reporter signal, replicate 1 = 1.53e5; firefly Hh reporter signal, replicate 2 = 6.36e5; firefly Hh reporter signal, replicate 3 = 53232; Renilla reference signal, replicate 1 = 5186; Renilla reference signal, replicate 2 = 43708; activity call = inactive
atl — firefly Hh reporter signal, replicate 1 = 1.12e5; firefly Hh reporter signal, replicate 2 = 82043; Renilla reference signal, replicate 1 = 5024; Renilla reference signal, replicate 2 = 3434; activity call = inactive
trus — firefly Hh reporter signal, replicate 1 = 73435; firefly Hh reporter signal, replicate 2 = 1.12e5; Renilla reference signal, replicate 1 = 2656; Renilla reference signal, replicate 2 = 2805; activity call = inactive
CG10939 — firefly Hh reporter signal, replicate 1 = 77939; firefly Hh reporter signal, replicate 2 = 1.15e5; Renilla reference signal, replicate 1 = 4000; Renilla reference signal, replicate 2 = 3996; activity call = inactive
THG — firefly Hh reporter signal, replicate 1 = 1.36e5; firefly Hh reporter signal, replicate 2 = 72839; Renilla reference signal, replicate 1 = 4032; Renilla reference signal, replicate 2 = 6772; activity call = inactive
Max — firefly Hh reporter signal, replicate 1 = 1.44e5; firefly Hh reporter signal, replicate 2 = 91056; Renilla reference signal, replicate 1 = 4731; Renilla reference signal, replicate 2 = 2965; activity call = inactive
CG12078 — firefly Hh reporter signal, replicate 1 = 85317; firefly Hh reporter signal, replicate 2 = 66112; Renilla reference signal, replicate 1 = 2961; Renilla reference signal, replicate 2 = 4265; activity call = inactive
PIG-S #1 — firefly Hh reporter signal, replicate 1 = 99383; firefly Hh reporter signal, replicate 2 = 78458; Renilla reference signal, replicate 1 = 3760; Renilla reference signal, replicate 2 = 2968; activity call = inactive
PIG-S #2 — firefly Hh reporter signal, replicate 1 = 5.91e5; firefly Hh reporter signal, replicate 2 = 1.24e5; Renilla reference signal, replicate 1 = 30361; Renilla reference signal, replicate 2 = 4001; activity call = inactive
PIG-S #3 — firefly Hh reporter signal, replicate 1 = 1.27e5; firefly Hh reporter signal, replicate 2 = 1.15e5; Renilla reference signal, replicate 1 = 5341; Renilla reference signal, replicate 2 = 4321; activity call = inactive
l(2)41Ab — firefly Hh reporter signal, replicate 1 = 7.24e5; firefly Hh reporter signal, replicate 2 = 2.69e5; Renilla reference signal, replicate 1 = 39196; Renilla reference signal, replicate 2 = 6407; activity call = inactive
RpS16 — firefly Hh reporter signal, replicate 1 = 40519; firefly Hh reporter signal, replicate 2 = 26726; Renilla reference signal, replicate 1 = 1341; Renilla reference signal, replicate 2 = 4002; activity call = active
Pisd — firefly Hh reporter signal, replicate 1 = 1.14e5; firefly Hh reporter signal, replicate 2 = 77456; Renilla reference signal, replicate 1 = 4723; Renilla reference signal, replicate 2 = 3238; activity call = inactive
